Experimental findings from publication PMC3402500, “Genes for Carbon Metabolism and the ToxA Virulence Factor in Pseudomonas aeruginosa Are Regulated through Molecular Interactions of PtxR and PtxS” (PLoS ONE, 2012) are described below.

The target in the test is T1, PtxR (Pseudomonas aeruginosa PAO1) (UniProt P72131).
T1 sequence: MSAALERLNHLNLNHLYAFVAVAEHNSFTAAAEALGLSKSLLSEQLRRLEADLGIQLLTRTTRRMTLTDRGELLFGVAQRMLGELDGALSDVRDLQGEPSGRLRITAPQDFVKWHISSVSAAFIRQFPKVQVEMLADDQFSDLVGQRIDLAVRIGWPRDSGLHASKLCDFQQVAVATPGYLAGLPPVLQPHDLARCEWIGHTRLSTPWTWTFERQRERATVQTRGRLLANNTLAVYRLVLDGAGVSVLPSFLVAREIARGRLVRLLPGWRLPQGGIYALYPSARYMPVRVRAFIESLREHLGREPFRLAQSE
Put plainly: ITC; as the titration of the free proteins, with 2-ketogluconate added to both protein solutions at a final concentration of 1 mM; both purified.

No constants are given. Whether binding was seen depends on the method and setting.

B1: PtxS (natural protein)
chain: MNGSVLPSRGRVTINQVAEAAGVSKASVSRYIGGDRQLLADATARRIERAIDQLDYRPNQMARGLKRGRTRLIGMLVADILNPYSVAVMHGVETACREHGYSLVVCNTDRDDEQERHHLAALQSYNVEGLIVNTLGHHPGELRALHRELPMVLVDRQLAELDTDLVGLDNADAVEQALDHLQHRGFRDILLVTEPLDGTSSRIERVQAFNASIGRRPALKGQVLQTDDFFRDGLRAFLSASGPGPKALFTCNGVATLCATRQLRDLGCRLFDEVGLLALDELDWYPLVGSGITALAQPTDEIGRTAFERLLARLEGDREPARRVTFPAQLIVRGSTHPRG
notes: PtxS, LacI family transcriptional regulator of Pseudomonas aeruginosa PAO1; ptxS gene amplified from chromosomal DNA and cloned NheI/XhoI into pET24b(+); The NheI/XhoI cloning into pET24b(+) may add a few vector residues at both ends; source: E. coli BL21 (DE3), purified (His-Trap chelating column); not shown: His6, C-terminal, kept
As for B1, the binding result is on record as “no binding (condition: with 1 mM 2-ketogluconate)”.
